Laboratory results taken from PubChem BioAssay AID248 (DTP/NCI, 2004).
The list is a part of this screen's results and no random one: it is rich in T/C values a quarter to a half above the control, in often repeated tests (any T/C) and in doses without a T/C. Other doses and runs of a compound stand elsewhere. T/C: endpoint of the treated group in % of that of the vehicle group. Some entries give survivors of the animals treated and no T/C: the source files T/C as zero there, which appears to mark a toxic dose or a test without result, not a measured value. Some survivor counts are full or nearly so, which does not show that the dose was tolerated: the source hardly ever lists a survival T/C far under the control, and the zero likely stands for such cases as well. Survivors were counted at the toxicity check, usually on the fifth day, unless a day is given; later deaths do not show. Schedules are NCI's codes, read here as Q, the interval in days (D) or hours (H), X, the number of doses. Some entries hold several experiments; the results are listed from low to high. Some schedules carry Z or #; the key to these is not given. For survival time, the PubChem record calls one and a half times the control and up active, and a quarter to a half above the control has no call in these data; cut-offs in other NCI protocols can differ. Signs of the kind (2×) give the number of equal values in this list.

Test system: L1210 leukemia ip in BDF1 mice, survival T/C
Assay: NCI In Vivo Anticancer Drug Screen. Data for tumor model L1210 Leukemia (intraperitoneal) in B6D2F1 (BDF1) mice
Settings: T/C endpoint: mean survival time, higher T/C = longer survival
[1] = dose: 200.0 mg/kg/injection, schedule: Q01DX009 (ip), vehicle: saline with Tween-80
[2] = dose: 200.0 mg/kg/injection, schedule: Q04DX002 (ip), vehicle: Klucel (hydroxypropylcellulose) (HPC)
[3] = dose: 200.0 mg/kg/injection, schedule: Q04DX002 (ip), vehicle: saline with Tween-80
[4] = dose: 400.0 mg/kg/injection, schedule: Q04DX003 (ip), vehicle: saline
[5] = dose: 400.0 mg/kg/injection, schedule: Q01DX001 (ip), vehicle: saline
[6] = dose: 100.0 mg/kg/injection, schedule: Q01DX009 (ip), vehicle: saline with Tween-80
[7] = dose: 400.0 mg/kg/injection, schedule: Q04DX003 (ip), vehicle: saline with Tween-80
[8] = dose: 400.0 mg/kg/injection, schedule: Q04DX002 (ip), vehicle: saline with Tween-80
[9] = dose: 200.0 mg/kg/injection, schedule: Q04DX003 (ip), vehicle: Klucel (hydroxypropylcellulose) (HPC)
[10] = dose: 50.0 mg/kg/injection, schedule: Q01DX009 (ip), vehicle: saline with Tween-80
[11] = dose: 100.0 mg/kg/injection, schedule: Q04DX003 (ip), vehicle: saline with Tween-80
[12] = dose: 200.0 mg/kg/injection, schedule: Q04DX003 (ip), vehicle: saline with Tween-80
[13] = dose: 100.0 mg/kg/injection, schedule: Q04DX003 (ip), vehicle: Klucel (hydroxypropylcellulose) (HPC)
[14] = dose: 400.0 mg/kg/injection, schedule: Q04DX003 (ip), vehicle: Klucel (hydroxypropylcellulose) (HPC)
[15] = dose: 200.0 mg/kg/injection, schedule: Q04DX002 (ip), vehicle: saline
[16] = dose: 400.0 mg/kg/injection, schedule: Q01DX009 (ip), vehicle: Klucel (hydroxypropylcellulose) (HPC)

Q: For `C/C(=N/N=C(N)N)c1cccnc1`, which survivor count (dose: 240.0 mg/kg/injection, schedule: Q01DX Z (ip), vehicle: saline) is on record?
A: 0 of 6

Q: What about the survivor count (dose: 480.0 mg/kg/injection, schedule: Q01DX Z (ip), vehicle: saline) of the same compound?
A: 0 of 6

Q: How did the survivor count (dose: 750.0 mg/kg/injection, schedule: Q01DX Z (oral), vehicle: methylcellulose (MC)) turn out when `O=c1cc(O)nc[nH]1` was run?
A: 6 of 6

Q: With `OCCOc1c(Cl)cc(Cl)cc1Cl` as the compound, how does the survivor count [1] read?
A: 6 of 6

Q: How did the survivor count [2] turn out when `COc1ccc(CCCNCCCCCCNCCCc2ccc(OC)cc2)cc1` was run?
A: 1 of 3

Q: Which survivor count (dose: 50.0 mg/kg/injection, schedule: Q01DX009 (ip), vehicle: steroid suspending solution) does the source give for `C[C@]12CC[C@@H]3c4ccc(Oc5nc(N6CC6)nc(N6CC6)n5)cc4CC[C@H]3[C@@H]1CCC2=O` here?
A: 1 of 6

Q: What about the survivor count (dose: 100.0 mg/kg/injection, schedule: Q01DX009 (ip), vehicle: steroid suspending solution) of the same compound?
A: 0 of 6

Q: And the survivor count (dose: 200.0 mg/kg/injection, schedule: Q01DX009 (oral), vehicle: carboxymethylcellulose (CMC))?
A: 0 of 6

Q: What about the survivor count (dose: 200.0 mg/kg/injection, schedule: Q04DX003 (sc), vehicle: steroid suspending solution) of the same compound?
A: 5 of 6

Q: What about the survivor count (dose: 400.0 mg/kg/injection, schedule: Q04DX003 (sc), vehicle: steroid suspending solution) of the same compound?
A: 3 of 6

Q: For `O=C1C2=C(C(=O)C3=C1C1CCC3C1)C1CCC2C1`, which survivor count [3] is on record?
A: 3 of 3

Q: Which results are given for `C(COCC1CO1)OCC1CO1` (configuration not stated)?
A: T/C (dose: 50.0 mg/kg/injection, schedule: Q01DX009 (ip), vehicle: saline): 125 and 132 % of control; survivor count (dose: 200.0 mg/kg/injection, schedule: Q01DX009 (ip), vehicle: saline): 1 of 6; survivor count [4]: 0 of 6; survivor count (dose: 675.0 mg/kg/injection, schedule: Q01DX Z (ip), vehicle: saline): 4 of 6

Q: How did the survivor count [5] turn out when `Cc1cccc(OCCOc2cccc(C)c2)c1` was run?
A: 6 of 6

Q: What does the source list for `Oc1c(Cl)cc(Cl)c2cccnc12`?
A: survivor count (dose: 200.0 mg/kg/injection, schedule: Q01DX001 (ip), vehicle: carboxymethylcellulose (CMC)): 0 of 4; survivor count [1]: 4 of 6; survivor count (dose: 400.0 mg/kg/injection, schedule: Q01DX001 (ip), vehicle: carboxymethylcellulose (CMC)): 0 of 4

Q: What does the source list for `O=C(O)C(CSC(c1ccccc1)(c1ccccc1)c1ccccc1)N=Cc1cccs1` (configuration not stated)?
A: T/C (dose: 35.0 mg/kg/injection, schedule: Q01DX009 (ip), vehicle: saline): 128 % of control; survivor count [6]: 3 of 6; survivor count (dose: 150.0 mg/kg/injection, schedule: Q01DX009 (ip), vehicle: saline): 6 of 6

Q: `CCCP(=S)(CCC)N(C)C` was tested. Which survivor count [7] did it give?
A: 1 of 6

Q: `CN(C)C(=O)Nc1ccc([N+](=O)[O-])cc1[N+](=O)[O-]` was tested. Which T/C (dose: 100.0 mg/kg/injection, schedule: Q04DX002 (ip), vehicle: saline with Tween-80) did it give?
A: 98 (2×), 102, 104 % of control

Q: And the T/C [3]?
A: 91, 92, 95, 109 % of control

Q: And the T/C [8]?
A: 91, 97, 98, 137 % of control

Q: `O=[N+]([O-])c1ccc(S)cc1` was tested. Which survivor count [9] did it give?
A: 6 of 6

Q: Which survivor count [1] does the source give for `Cc1cc(Cl)c(Cl)cc1NC(=O)c1ccc(Cl)c(Cl)c1` here?
A: 6 of 6

Q: What does the source list for `Nc1nc2nc3c(nc2c(=O)[nH]1)CN(c1ccc(C(=O)O)cc1)C3=O`?
A: survivor count [10]: 6 of 6; survivor count [6]: 5 of 6; survivor count [1]: 2 of 6

Q: For `CCCCCCCCCCCCCCCC[n+]1ccc(C(N)=O)cc1`, which survivor count [11] is on record?
A: 3 of 6

Q: And the survivor count [12]?
A: 1 of 6

Q: What about the survivor count [7] of the same compound?
A: 0 of 6

Q: For `C#CC(C)(C)N1CCCCC1`, which survivor count [13] is on record?
A: 3 of 6

Q: Which survivor count [14] does the source give for `CCOP(=O)(CCl)NC12CC3CC(CC(C3)C1)C2` (configuration not stated) here?
A: 3 of 6

Q: Which survivor count (dose: 100.0 mg/kg/injection, schedule: Q04DX003 (ip), vehicle: saline) does the source give for `Nc1ncnc2c1ncn2CCCCCl` here?
A: 5 of 6

Q: What about the survivor count (dose: 200.0 mg/kg/injection, schedule: Q04DX003 (ip), vehicle: saline) of the same compound?
A: 0 of 6

Q: And the survivor count [4]?
A: 0 of 6

Q: How did the survivor count [15] turn out when `CC(=O)N(C)c1ccccc1` was run?
A: 2 of 3

Q: And the survivor count (dose: 400.0 mg/kg/injection, schedule: Q04DX002 (ip), vehicle: saline)?
A: 1 of 3

Q: With `CC1(C)CCOc2ccccc21` as the compound, how does the survivor count [1] read?
A: 3 of 3

Q: `CN(C)c1ccc(/C=N/NC=O)c(Cl)c1` was tested. Which survivor count (dose: 75.0 mg/kg/injection, schedule: Q01DX001 (ip), vehicle: saline) did it give?
A: 0 of 6

Q: And the survivor count (dose: 150.0 mg/kg/injection, schedule: Q01DX001 (ip), vehicle: saline)?
A: 0 of 6

Q: And the survivor count (dose: 300.0 mg/kg/injection, schedule: Q01DX001 (ip), vehicle: saline)?
A: 0 of 6

Q: With `c1cnc2c3c(ccc2c1)CN(C1CCCCC1)CO3` as the compound, how does the survivor count (dose: 400.0 mg/kg/injection, schedule: Q04DX003 (ip), vehicle: saline sonified) read?
A: 0 of 6

Q: `CC1(C)C2CCC1(C)C(NC(=O)N(CCCl)N=O)C2` (configuration not stated) was tested. Which T/C (dose: 300.0 mg/kg/injection, schedule: Q01DX001 (ip), vehicle: carboxymethylcellulose (CMC)) did it give?
A: 148 % of control

Q: What about the T/C (dose: 750.0 mg/kg/injection, schedule: Q01DX001 (ip), vehicle: carboxymethylcellulose (CMC)) of the same compound?
A: 145 % of control

Q: Which results are given for `CC(C)NCCCN`?
A: survivor count [3]: 3 of 3; survivor count [5]: 0 of 4; survivor count [8]: 0 of 3

Q: `C[CH2][Pb]([CH2]C)([CH2]C)[N](C#N)C(=N)N` was tested. Which survivor count (dose: 100.0 mg/kg/injection, schedule: Q04DX002 (ip), vehicle: Klucel (hydroxypropylcellulose) (HPC)) did it give?
A: 1 of 3 and 2 of 3

Q: What about the survivor count [2] of the same compound?
A: 0 of 3

Q: And the survivor count (dose: 400.0 mg/kg/injection, schedule: Q04DX002 (ip), vehicle: Klucel (hydroxypropylcellulose) (HPC))?
A: 0 of 3

Q: With `O=C(COc1ccc(Cl)cc1Cl)Nc1ccc2ccccc2c1` as the compound, how does the survivor count [15] read?
A: 3 of 3

Q: With `Cc1ccc(NC(=O)OC/C=C/c2ccccc2)c(Cl)c1` as the compound, how does the survivor count [16] read?
A: 6 of 6

Q: With `c1ccc(-c2ccccc2NC2=NCCO2)cc1` as the compound, how does the survivor count [11] read?
A: 6 of 6

Q: What about the survivor count [12] of the same compound?
A: 6 of 6

Q: What about the survivor count [7] of the same compound?
A: 0 of 6

Q: For `O=C(Nc1cc([N+](=O)[O-])cc([N+](=O)[O-])c1O)C(F)(F)F`, which survivor count (dose: 200.0 mg/kg/injection, schedule: Q01DX001 (ip), vehicle: Klucel (hydroxypropylcellulose) (HPC)) is on record?
A: 2 of 6

Q: What about the survivor count (dose: 400.0 mg/kg/injection, schedule: Q01DX001 (ip), vehicle: Klucel (hydroxypropylcellulose) (HPC)) of the same compound?
A: 0 of 3

Q: With `CCCCCCCC/C=C\CCCCCCCC(=O)O.[Cu+2]` as the compound, how does the survivor count [5] read?
A: 2 of 6

Q: How did the survivor count (dose: 400.0 mg/kg/injection, schedule: Q01DX009 (sc), vehicle: olive oil, sesame oil, peanut oil) turn out when `CC1CC=C(C2CC(C)CC(N(C)C)C2=N)CC1` (configuration not stated) was run?
A: 2 of 6

Q: For `CCC1CCCC1=O` (configuration not stated), which survivor count (dose: 100.0 mg/kg/injection, schedule: Q01DX001 (ip), vehicle: saline) is on record?
A: 4 of 4

Q: What about the survivor count [5] of the same compound?
A: 4 of 4

Q: How did the survivor count [13] turn out when `CC1=C(Cl)C(Cl)(Cl)C(=O)C(=O)C1(Cl)Cl` was run?
A: 1 of 6

Q: What about the survivor count [9] of the same compound?
A: 0 of 6

Q: And the survivor count [14]?
A: 0 of 6

Q: What does the source list for `COc1ccc2nc3cc(Cl)ccc3c(NCCNCCNCCNc3c4ccc(Cl)cc4nc4ccc(OC)cc34)c2c1`?
A: survivor count [10]: 0 of 6; survivor count [1]: 3 of 6; survivor count (dose: 400.0 mg/kg/injection, schedule: Q01DX009 (ip), vehicle: saline with Tween-80): 1 of 6

Q: How did the survivor count [16] turn out when `O=[N+]([O-])c1ccc2c(c1)C(Br)c1ccccc1-2` (configuration not stated) was run?
A: 4 of 6
